Measurements as given in paper doi:10.1101/2025.07.28.667281.
Results are given in words; binding and its absence hold for the method and conditions named. Binding seen in cells or lysates may run through a third protein. These calls come from enrichment with a bait or labelling near it, and not all partners need be listed. Sequences can lack the tags named with a protein.

By UniProt entry, the sequences of proteins in these tests, tags left out. Residues count along the entry.
UniProt P11835, residues 24-771: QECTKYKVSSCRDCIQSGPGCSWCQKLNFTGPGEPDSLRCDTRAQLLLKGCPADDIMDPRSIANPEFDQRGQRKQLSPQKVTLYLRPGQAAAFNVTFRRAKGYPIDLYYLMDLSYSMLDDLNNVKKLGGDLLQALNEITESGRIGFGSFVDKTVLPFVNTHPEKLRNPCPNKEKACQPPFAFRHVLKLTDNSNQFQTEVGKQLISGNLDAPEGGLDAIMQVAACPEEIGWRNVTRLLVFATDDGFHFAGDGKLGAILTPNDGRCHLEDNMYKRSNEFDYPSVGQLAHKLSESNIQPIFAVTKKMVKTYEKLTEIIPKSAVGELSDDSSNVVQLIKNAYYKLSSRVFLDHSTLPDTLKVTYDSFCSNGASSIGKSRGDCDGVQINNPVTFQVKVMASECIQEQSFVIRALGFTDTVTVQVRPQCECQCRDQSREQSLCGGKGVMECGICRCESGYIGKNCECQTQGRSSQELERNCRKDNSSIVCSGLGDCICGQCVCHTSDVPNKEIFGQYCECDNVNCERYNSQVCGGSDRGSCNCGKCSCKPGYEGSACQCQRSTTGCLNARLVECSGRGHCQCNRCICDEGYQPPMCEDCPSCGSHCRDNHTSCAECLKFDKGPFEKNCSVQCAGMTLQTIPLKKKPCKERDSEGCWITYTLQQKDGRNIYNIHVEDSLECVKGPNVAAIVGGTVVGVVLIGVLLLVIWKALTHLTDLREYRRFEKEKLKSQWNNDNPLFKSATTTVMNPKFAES
UniProt P09055, residues 21-798: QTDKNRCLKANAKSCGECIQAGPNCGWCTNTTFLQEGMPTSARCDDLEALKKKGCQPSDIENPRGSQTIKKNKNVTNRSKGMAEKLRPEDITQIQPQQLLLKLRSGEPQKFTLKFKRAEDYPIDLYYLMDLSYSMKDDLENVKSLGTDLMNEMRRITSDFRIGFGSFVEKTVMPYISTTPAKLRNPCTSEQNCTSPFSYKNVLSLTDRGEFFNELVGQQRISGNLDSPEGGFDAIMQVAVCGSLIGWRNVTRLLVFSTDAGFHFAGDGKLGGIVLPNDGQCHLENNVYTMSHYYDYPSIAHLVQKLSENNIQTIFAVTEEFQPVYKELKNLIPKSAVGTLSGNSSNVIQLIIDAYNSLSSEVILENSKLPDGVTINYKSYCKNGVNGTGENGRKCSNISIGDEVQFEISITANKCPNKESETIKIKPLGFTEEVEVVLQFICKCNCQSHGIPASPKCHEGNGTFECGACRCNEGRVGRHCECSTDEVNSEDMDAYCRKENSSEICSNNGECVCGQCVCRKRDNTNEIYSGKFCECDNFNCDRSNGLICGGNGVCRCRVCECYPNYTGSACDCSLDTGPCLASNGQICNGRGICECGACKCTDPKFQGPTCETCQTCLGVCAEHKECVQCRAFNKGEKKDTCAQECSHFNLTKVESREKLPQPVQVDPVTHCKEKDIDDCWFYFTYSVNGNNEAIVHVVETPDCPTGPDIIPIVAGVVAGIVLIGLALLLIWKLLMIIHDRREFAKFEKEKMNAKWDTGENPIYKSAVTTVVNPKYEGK

T1: murine, V5-tagged EGFL7 (mEGFL7) (mouse) (UniProt Q9QXT5)
T1 sequence: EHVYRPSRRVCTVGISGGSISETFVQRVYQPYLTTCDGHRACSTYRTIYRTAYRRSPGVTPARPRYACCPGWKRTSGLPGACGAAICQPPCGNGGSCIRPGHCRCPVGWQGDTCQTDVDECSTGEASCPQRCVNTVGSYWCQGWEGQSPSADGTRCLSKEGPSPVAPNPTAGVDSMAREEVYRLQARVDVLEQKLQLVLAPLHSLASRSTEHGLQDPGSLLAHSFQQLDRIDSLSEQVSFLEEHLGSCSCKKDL

B1: integrin α4 (ITGA4) (receptor, UniProt Q00651 41-1039)
chain: YNLDPENALLYQGPSGTLFGYSVVLHSHGSKRWLIVGAPTASWLSNASVVNPGAIYRCGIRKNPNQTCEQLQSGSPSGEPCGKTCLEERDNQWLGVTLSRQPGENGSIVTCGHRWKNIFYMKSDNKLPTGICYVMPSDLRTELSKRMAPCYKDYTRKFGENFASCQAGISSFYTQDLIVMGAPGSSYWTGTVFVYNITTNQYKAFVDRQNQVKFGSYLGYSVGAGHFRSPHTTEVVGGAPQHEQIGKAYIFSIDENELNIVYEMKGKKLGSYFGASVCAVDLNADGFSDLLVGAPMQSTIREEGRVFVYINSGMGAVMVEMERVLVGSDKYAARFGESIANLGDIDNDGFEDIAIGAPQEDDLRGAVYIYNGRVDGISSTYSQRIEGQQISKSLRMFGQSISGQIDADNNGYVDVAVGAFQSDSAVLLRTRPVVIVEASLSHPESVNRTKFDCTENGLPSVCMHLTLCFSYKGKEVPGYIVLFYNVSLDVHRKAESPSRFYFFSNGTSDVITGSIRVSSSGEKCRTHQAFMRKDVRDILTPIHVEATYHLGHHVITKRNTEEFPPLQPILQQKKEKDVIRKMINFARFCAYENCSADLQVSAKVGFLKPYENKTYLAVGSMKTIMLNVSLFNAGDDAYETTLNVQLPTGLYFIKILDLEEKQINCEVTESSGIVKLACSLGYIYVDRLSRIDISFLLDVSSLSRAHEDLSISVHASCENEGELDQVRDNRVTLTIPLRYEVMLTVHGLVNPTSFVYGSSEENEPETCMAEKLNLTFHVINTGISMAPNVSVKIMVPNSFLPQDDKLFNVLDVQTTTGQCHFKHYGRECTFAQQKGIAGTLTDIVKFLSKTDKRLLYCMKADQHCLDFLCNFGKMESGKEASVHIQLEGRPSILEMDETSSLKFEIKATAFPEPHPKVIELNKDENVAHVFLEGLHHQRPKRHFTIIIITISLLLGLIVLLLISCVMWKAGFFKRQYKSILQEENRRDSWSYVNSKSNDD

Target: T1, murine, V5-tagged EGFL7 (mEGFL7) (mouse)
Assay: affinity purification with mass spectrometry

binding, binds:
integrin β2 (ITGB2, also known as CD18) (from UniProt P11835 24-771) (receptor)
integrin αV (ITGAV) (receptor)
integrin β1 (ITGB1) (from UniProt P09055 21-798) (receptor)
B1
